# Assay results published in PubChem BioAssay AID2685 (National Center for Advancing Translational Sciences (NCATS), 2010).
# In all, about 320,000 compounds went through this assay and about 2,100 (0.66%) were called active. Inconclusive results, whose numbers are uncertain, are shown with a selection of clear calls. Calls come from the whole dose curve; as a rule, active = well fitted inhibition curve with a large enough effect in the signal ratio, with a control signal flat (not every such curve was filed as active); inconclusive = small, poorly fitted or top-dose-only effect, or effect the other way, or a change in a side signal; inactive = flat fitted curve, though single readings scatter; the % refers to the signal ratio. Potencies of inconclusive entries are doubtful fits and often do not repeat.
# Assay: qHTS Assay for Lipid Storage Modulators in Drosophila S3 Cells
# Conditions: BODIPY lipid droplet fluorescence, 18-24 h, cells fed with added oleic acid; lipid storage change, negative = inhibition: at 46.1 µM (top of the series) unless noted
# Method in brief: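 Drosophila S3 cells loaded with oleic acid (400 uM, as added) and compounds at several concentrations; lipid droplets imaged by 488-nm laser-scanning cytometry, 500–530 nm intensity and object ratio to cell channel. Percent activity normalized to 20 uM Triacsin C.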
# % is set by controls: 0 for no effect and ±100 for the full control effect; potency is the fitted concentration of half-maximal effect.
SMILES,"lipid storage change, negative = inhibition",Potency
CCOC(=O)c1ccc(S(=O)(=O)N2CCN(CCC#N)CC2)cc1,inconclusive: 7.29%,
CCOC(=O)C1=C(C)N=c2s/c(=C\c3ccc(O)c([N+](=O)[O-])c3)c(=O)n2C1c1ccccc1OC (centres undefined),inconclusive: -33.8%,
Cc1ccc(Cl)cc1N1CCN(Cc2nc3c(c(=O)[nH]c(=O)n3C)n2CCc2ccccc2)CC1,inconclusive: 8.62%,
Cc1ccc(C2=N/C(=C/N3CCOCC3)C(=O)O2)cc1,inconclusive: -10.1%,
COc1ccc(C2CCN(Cc3cccnc3)CC2O)cc1 (centres undefined),,"inconclusive: 25.9 µM [activator, single point]"
O=C(/C=C/c1ccc(OC(F)F)cc1)OCC(=O)N1CCc2ccccc21,inconclusive,
O=C(CCn1c(=O)oc2ccccc21)N1CCCCCC1,inconclusive: 10.7%,
Cc1ccc(C(=O)N2C3=C(CCCC3)C(=O)NC23CCCCC3)cc1,inactive,
O=C(c1ccco1)N1CCCC(c2nc3c(nnn3Cc3c(Cl)cccc3Cl)c(=O)[nH]2)C1 (centres undefined),inconclusive: -44.6%,
O=C(Cc1cccs1)Nc1nnc(SCC(=O)NC2CCCCC2)s1,inconclusive: 32.5%,
CC(=O)c1sc2nc(-c3ccccc3)cc(C)c2c1N,,"inconclusive: 29.1 µM [falling, single point]"
CN(C)C(CNC(=O)c1ccc(S(=O)(=O)Nc2cccc(C(F)(F)F)c2)cc1)c1ccco1 (centres undefined),inconclusive: 13.7%,
CCN(CC)S(=O)(=O)c1ccc(NC(=O)COC(=O)c2cc(S(=O)(=O)Nc3ccc(OC)cc3)ccc2O)cc1,inconclusive: 82.8%,
COc1ccc(CCNC(=O)COc2ccc(S(=O)(=O)N3CCOCC3)cc2C)cc1,inconclusive: -77.4%,
COCCn1c(SCC(=O)Nc2cccc(C)c2)nnc1C(C)C,inconclusive: -35.2%,
O=C(CCCC(=O)c1ccccc1)NCc1ccccc1,inconclusive: 2.13%,
O=C(c1cc2ccccc2o1)n1nnc2ccccc21,inconclusive: -7.96%,
Cc1ccc(NC(=O)CSCC(=O)Nc2ccccc2C(=O)N2CCCCC2)cc1,inconclusive,
COc1ccc(CC2(CO)CCN(Cc3ccncc3)CC2)cc1,inconclusive: 2.37%,
Cc1ccnc(NC(=O)c2cc(S(=O)(=O)NCc3ccccc3)ccc2C)c1,inconclusive: 18.3%,
Cc1cccc(-c2noc(C3CCCCC3)n2)c1,inconclusive: 11.5%,
CCN(c1ccccc1)S(=O)(=O)c1ccc(OC)c(NC(=O)C2CC2)c1,,"inconclusive: 29.1 µM [activator, single point]"
O=C(O)CSc1cc(C(=O)c2cc(F)ccc2O)cn2c(=O)c3c(-c4ccccc4)csc3nc12,inconclusive: -22.2%,
COc1ccc(C2=NN(S(C)(=O)=O)C(c3ccc4nccnc4c3)C2)cc1 (centres undefined),,"inconclusive: 1.64 µM [activator, full curve]"
O=C1CCCc2oc3ccc(NS(=O)(=O)c4cccc5cccnc45)cc3c21,inconclusive: 3.25%,

SMILES,"lipid storage change, negative = inhibition",Potency
Cc1ccccc1NS(=O)(=O)c1ccc2[nH]cc(C(=O)NCCc3ccccc3)c(=O)c2c1,inconclusive: 29.1%,
CNC[C@@H](Cc1ccccc1)NC[C@@H](CC1CCCCC1)NCCCc1ccccc1,,"inconclusive: 20.6 µM [falling, single point]"
Cn1c(=O)c2sccc2n2c(CCCC(=O)N3CCN(c4ccccn4)CC3)nnc12,,"inconclusive: 6.51 µM [falling, single point]"
N#Cc1ccc(-c2ccco2)nc1SCc1ccccc1,inconclusive: 162%,
Cc1[nH]c(=O)[nH]c(=O)c1S(=O)(=O)N1CCCC(C(=O)NCc2ccccc2Cl)C1 (centres undefined),inconclusive: 11.9%,
COC(=O)C(CCSC)NC(=O)c1cc2c(n(-c3ccc(C)cc3)c1=O)CCCC2=O (centres undefined),inconclusive: -28.4%,
COc1ccc(N(C(C)C(=O)N/N=C/c2ccc(OC(C)C)cc2)S(C)(=O)=O)cc1 (centres undefined),inconclusive: 6.94%,
CN(C(=O)c1cc2c(s1)-c1ccccc1S(=O)(=O)C2)c1ccccc1,,"inconclusive: 0.0041 µM [activator, full curve, poor fit]"
COc1cccc(NC(=O)CN(C)C(=O)c2cc3c(s2)CCCC3)c1,,"inconclusive: 6.51 µM [falling, single point]"
CC(C)C(Sc1nc(-c2ccccc2)cc(-c2ccccc2)c1C#N)C(=O)O (centres undefined),,"inconclusive: 18.4 µM [falling, partial curve, poor fit]"
Cc1nn(Cc2c(Cl)cccc2Cl)c(C)c1NC(=O)/C=C/c1cnn(C)c1C,,"inconclusive: 2.59 µM [activator, single point]"
CC(=O)Nc1ccc(S(=O)(=O)c2c(N)n(CCN3CCOCC3)c3nc4ccccc4nc23)cc1,,"inconclusive: 2.91 µM [activator, partial curve, poor fit]"
O=C(Nc1ccc(NC(=O)c2sc3ccccc3c2Cl)cc1)c1ccco1,,"inconclusive: 29.1 µM [activator, single point]"
Cc1cccc(C(=O)N/N=C/c2ccoc2)c1,inconclusive: -18.7%,
COc1ccc(-c2ccc(-c3noc(C)n3)c(OC)n2)cc1,,"inconclusive: 6.51 µM [activator, single point]"
O=C(CCc1nc2ccccc2c(=O)[nH]1)NC1CCN(Cc2ccccc2)CC1,inconclusive: -50.8%,
O=C(NC1CCCCC1)C(c1ccc(Cl)cc1)N1CCC2(CC1)OCCO2 (centres undefined),inconclusive: 17.8%,
Cc1cccc2sc(NC(=O)CCNS(=O)(=O)c3cccc4nonc34)nc12,,"inconclusive: 0.731 µM [activator, single point]"
Cc1cc(C)n(-c2ccc(Cl)c(C(=O)Nc3ccc(OC(F)(F)F)cc3)n2)n1,inactive,
CCOC(=O)c1c(NC(=O)CN2CCN(C(=O)c3ccco3)CC2)sc(C)c1C,inconclusive: -58.2%,
C=CCSC(=S)Nc1c(C)n(C)n(-c2ccccc2)c1=O,,"inconclusive: 0.259 µM [cytotoxic, full curve]"
CCOc1ccc(S(=O)(=O)NCCCn2ccnc2)cc1,,"inconclusive: 10.3 µM [activator, single point]"
Cc1ccc(CN(C)C(=O)C2CCN(C(=O)Nc3ccccc3)CC2)o1,inconclusive,
Cc1cc(F)ccc1NC(=O)c1cc(S(=O)(=O)N2CCOCC2)cn1C,inconclusive: 20.7%,
CCOc1ccccc1C1NC(=O)NC(C)=C1C(=O)OCc1ccccc1 (centres undefined),,"inconclusive: 29.1 µM [falling, single point]"

# Reformatted: 3 of the compounds above
SMILES | lipid storage change, negative = inhibition | Potency
CC(=O)c1sc2nc(-c3ccccc3)cc(C)c2c1N |  | inconclusive: 29.1 µM [falling, single point]
COc1ccc(CCNC(=O)COc2ccc(S(=O)(=O)N3CCOCC3)cc2C)cc1 | inconclusive: -77.4% | 
COc1ccc(C2=NN(S(C)(=O)=O)C(c3ccc4nccnc4c3)C2)cc1 (centres undefined) |  | inconclusive: 1.64 µM [activator, full curve]

# (continued)

SMILES,"lipid storage change, negative = inhibition",Potency
Cn1c(COc2ccccc2Br)nc2ccccc21,inconclusive: -11.9%,
CCN1CCN(c2nc(Nc3cccc(OC)c3)nc(N)c2[N+](=O)[O-])CC1,inconclusive: 15.2%,
COC(=O)c1cn(NC(=O)COc2ccc(Cl)cc2)c(=O)c2ccccc12,inconclusive: -22.7%,
COc1ccc(-c2nc(-c3cccnc3)no2)cc1,inconclusive: -4.97%,
CCCOc1ccc(Cc2nn[nH]n2)cc1,,"inconclusive: 0.731 µM [falling, full curve, poor fit]"
O=S(=O)(Nc1ccc(OC(F)F)cc1)c1ccc(-c2ccon2)s1,inactive,
CCCN(CCO)Cc1cccc(Oc2ccccc2)c1,,"inconclusive: 3.66 µM [falling, full curve, poor fit]"
COc1ccc(-c2noc(CCC(=O)Nc3ccc(C)c(C)c3)n2)cc1,,"inconclusive: 0.13 µM [falling, full curve, poor fit]"
COC(=O)c1sc(NC(=S)NC(=O)c2ccccc2Cl)nc1C,,"inconclusive: 0.0073 µM [activator, full curve, poor fit]"
CC(=O)Cc1nsc(NC(=O)c2ccc(-c3cc(Cl)ccc3Cl)o2)n1,inactive,
Cc1cccc(CNC(=O)C2CCC(=O)N(C3CCCC3)C2)c1 (centres undefined),inconclusive: 8.78%,
CC(C(=O)NCCCN1CCOCC1)n1cccc1C(=O)c1ccccc1 (centres undefined),inconclusive: 7.22%,
O=C(Nc1cc(S(=O)(=O)Nc2ccccc2Cl)ccc1O)c1sc2cc(Cl)ccc2c1Cl,inconclusive: -21.8%,
CCCCc1cc(=O)oc2c(C)c(OCC(=O)N3CCC(C(=O)O)(c4ccccc4)CC3)ccc12,,"inconclusive: 20.6 µM [activator, single point]"
COc1ccc(N2CCN(C(=O)CN(CCc3ccccc3)S(C)(=O)=O)CC2)cc1,,"inconclusive: 6.51 µM [cytotoxic, partial curve, poor fit]"
Oc1ccccc1N1CCN(CC(O)COC2CCCc3ccccc32)CC1 (centres undefined),inconclusive: 15.3%,
Cc1ccc2c(c1)N(CC(=O)N1CCCCC1)C(=O)C(C)O2 (centres undefined),inconclusive: -1.6%,
CC1CCN(C(=S)Nc2ccc(F)cc2)CC1,,"inconclusive: 16.4 µM [activator, single point]"
CCOc1ccccc1-n1nnnc1SCC(=O)OC,,"inconclusive: 29.1 µM [falling, single point]"
COc1ccc(-n2nc(C(=O)NCC(=O)NCc3ccc(F)cc3)c3ccccc3c2=O)cc1,inconclusive: -100%,
COc1ccc(CCNC(=O)CN2C(=O)COc3ccc(S(=O)(=O)N4CCCC4)cc32)cc1OC,inconclusive: -81.2%,
CCNc1nc(NCC)nc(N/N=C/c2ccc(OC)cc2)n1,inconclusive: 13.9%,
Cc1c(/C(O)=C2\C(=O)C(=O)N(CCCN(C)C)C2c2ccccc2)cnn1-c1ccccc1 (centres undefined),inconclusive: 22.4%,
COc1ccc(CCNC(=O)c2c[nH]c3ccccc3c2=O)cc1OC,,"inconclusive: 18.4 µM [falling, single point]"

# In the list so far, 2 have a CF3 group.
SMILES,"lipid storage change, negative = inhibition",Potency
CN(C)C(CNC(=O)c1ccc(S(=O)(=O)Nc2cccc(C(F)(F)F)c2)cc1)c1ccco1 (centres undefined),inconclusive: 13.7%,
Cc1cc(C)n(-c2ccc(Cl)c(C(=O)Nc3ccc(OC(F)(F)F)cc3)n2)n1,inactive,
